Measurements as given in PMC4350099.

Chains of the proteins cited; added tags and fusions are not shown. Lines headed by an entry give the natural chain unless they say otherwise; changes in a name come on top.
UniProt P63104: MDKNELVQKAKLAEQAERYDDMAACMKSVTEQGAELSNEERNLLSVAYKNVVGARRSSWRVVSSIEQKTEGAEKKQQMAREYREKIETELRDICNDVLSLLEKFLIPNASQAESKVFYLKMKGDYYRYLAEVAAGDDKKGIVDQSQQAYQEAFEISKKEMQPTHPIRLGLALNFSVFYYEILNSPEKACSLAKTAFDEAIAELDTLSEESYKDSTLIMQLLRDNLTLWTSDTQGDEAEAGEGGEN
UniProt Q99466: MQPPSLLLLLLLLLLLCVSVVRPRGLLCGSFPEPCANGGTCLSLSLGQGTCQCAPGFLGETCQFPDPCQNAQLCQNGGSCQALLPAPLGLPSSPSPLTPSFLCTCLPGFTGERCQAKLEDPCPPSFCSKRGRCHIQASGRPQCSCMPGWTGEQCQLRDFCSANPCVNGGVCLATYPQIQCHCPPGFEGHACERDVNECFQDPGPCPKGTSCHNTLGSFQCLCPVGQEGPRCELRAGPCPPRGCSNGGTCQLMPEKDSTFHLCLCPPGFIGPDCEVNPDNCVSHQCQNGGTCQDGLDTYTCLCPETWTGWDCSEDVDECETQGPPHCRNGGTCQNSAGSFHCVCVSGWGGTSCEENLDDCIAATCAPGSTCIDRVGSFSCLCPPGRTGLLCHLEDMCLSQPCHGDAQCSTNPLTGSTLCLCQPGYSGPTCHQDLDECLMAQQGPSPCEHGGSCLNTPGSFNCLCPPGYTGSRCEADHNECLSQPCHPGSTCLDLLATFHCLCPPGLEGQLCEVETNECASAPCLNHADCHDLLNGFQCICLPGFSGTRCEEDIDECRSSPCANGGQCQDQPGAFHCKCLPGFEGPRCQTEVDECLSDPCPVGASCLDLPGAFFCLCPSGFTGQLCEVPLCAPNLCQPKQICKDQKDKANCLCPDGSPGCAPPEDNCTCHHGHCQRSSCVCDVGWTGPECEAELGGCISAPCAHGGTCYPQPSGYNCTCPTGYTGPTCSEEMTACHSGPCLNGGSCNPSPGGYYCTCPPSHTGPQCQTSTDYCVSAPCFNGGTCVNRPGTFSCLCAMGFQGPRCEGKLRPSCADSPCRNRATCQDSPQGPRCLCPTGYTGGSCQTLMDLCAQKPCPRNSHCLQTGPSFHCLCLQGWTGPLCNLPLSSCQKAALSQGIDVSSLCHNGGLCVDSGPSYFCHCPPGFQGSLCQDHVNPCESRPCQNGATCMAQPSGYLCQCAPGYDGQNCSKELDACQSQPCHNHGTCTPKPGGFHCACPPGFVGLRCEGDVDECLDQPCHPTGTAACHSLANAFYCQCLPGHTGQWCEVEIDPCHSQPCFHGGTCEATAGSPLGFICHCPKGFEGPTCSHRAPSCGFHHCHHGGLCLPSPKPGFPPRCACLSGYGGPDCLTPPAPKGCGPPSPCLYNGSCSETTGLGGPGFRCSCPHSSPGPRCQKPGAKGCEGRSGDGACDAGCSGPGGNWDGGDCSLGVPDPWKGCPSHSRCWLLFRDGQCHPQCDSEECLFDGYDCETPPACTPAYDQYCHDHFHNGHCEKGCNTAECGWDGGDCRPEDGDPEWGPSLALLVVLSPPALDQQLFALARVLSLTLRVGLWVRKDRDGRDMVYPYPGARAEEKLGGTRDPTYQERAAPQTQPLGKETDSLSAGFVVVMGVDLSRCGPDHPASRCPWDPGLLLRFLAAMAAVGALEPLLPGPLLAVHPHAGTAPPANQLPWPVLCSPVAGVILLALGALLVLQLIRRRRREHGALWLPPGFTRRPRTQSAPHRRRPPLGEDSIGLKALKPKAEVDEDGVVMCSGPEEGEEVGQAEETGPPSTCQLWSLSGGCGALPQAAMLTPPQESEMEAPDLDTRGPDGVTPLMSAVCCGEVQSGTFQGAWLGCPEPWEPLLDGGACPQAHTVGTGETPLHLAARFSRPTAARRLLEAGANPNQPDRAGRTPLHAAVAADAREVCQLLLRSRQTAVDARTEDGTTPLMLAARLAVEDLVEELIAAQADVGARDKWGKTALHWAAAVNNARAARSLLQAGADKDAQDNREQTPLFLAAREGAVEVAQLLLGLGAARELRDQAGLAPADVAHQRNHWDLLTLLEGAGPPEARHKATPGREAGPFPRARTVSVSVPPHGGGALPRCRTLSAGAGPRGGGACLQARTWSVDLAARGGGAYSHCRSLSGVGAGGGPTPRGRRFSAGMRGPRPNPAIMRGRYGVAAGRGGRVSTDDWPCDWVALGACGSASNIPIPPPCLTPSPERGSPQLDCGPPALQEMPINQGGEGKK

Target: GST-14-3-3ζ, expressed in COS-7 (UniProt P63104)
Assay: pull-down; COS-7 cells co-expressing GST-14-3-3ζ and HA-Notch4-ΔhN4; treated with γ-secretase inhibitor BMS-708163 (1 μM, 1 h), EGF (100 ng/ml, 15 min) or both; lysate on GSH sepharose

binding: binds
Substance: HA-Notch4-ΔhN4 (from UniProt Q99466) (receptor)

These are yes or no findings as the source states them, for the method shown. Binding seen in cells or lysates may run through a third protein. A result given as binding can be weak or reduced; the word gives no strength.
